Results reported in paper PMC11580471.
Results are given in words; binding and its absence hold for the method and conditions named. In cells and extracts the contact can be indirect. A yes stands for co-enrichment or nearness to the bait. Other partners may have been found. Tags and fused reporters may be left off the sequences shown.

The chains behind the UniProt entries cited, without tags or fusion partners. Where a name states a change or a piece, a line headed by the entry shows the natural chain unless it says otherwise. Residues count along the entry.
UniProt P11021, residues 19-654: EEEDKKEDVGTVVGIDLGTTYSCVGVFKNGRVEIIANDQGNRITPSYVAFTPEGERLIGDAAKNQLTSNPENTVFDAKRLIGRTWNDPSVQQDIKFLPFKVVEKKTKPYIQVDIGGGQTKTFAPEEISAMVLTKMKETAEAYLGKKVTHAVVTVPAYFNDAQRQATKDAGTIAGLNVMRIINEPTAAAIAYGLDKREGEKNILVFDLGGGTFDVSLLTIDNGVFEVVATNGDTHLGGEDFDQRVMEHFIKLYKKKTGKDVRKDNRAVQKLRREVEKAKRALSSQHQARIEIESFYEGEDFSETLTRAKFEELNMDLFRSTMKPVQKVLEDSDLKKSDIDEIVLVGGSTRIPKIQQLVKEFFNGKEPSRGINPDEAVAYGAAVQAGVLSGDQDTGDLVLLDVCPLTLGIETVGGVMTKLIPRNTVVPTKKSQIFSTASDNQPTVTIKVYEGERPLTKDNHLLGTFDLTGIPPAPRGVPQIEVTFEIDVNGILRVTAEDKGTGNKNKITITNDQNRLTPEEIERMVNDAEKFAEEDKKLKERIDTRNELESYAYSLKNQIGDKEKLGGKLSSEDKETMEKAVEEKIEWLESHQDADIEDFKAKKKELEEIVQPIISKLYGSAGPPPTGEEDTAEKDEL
UniProt P02788, residues 20-710: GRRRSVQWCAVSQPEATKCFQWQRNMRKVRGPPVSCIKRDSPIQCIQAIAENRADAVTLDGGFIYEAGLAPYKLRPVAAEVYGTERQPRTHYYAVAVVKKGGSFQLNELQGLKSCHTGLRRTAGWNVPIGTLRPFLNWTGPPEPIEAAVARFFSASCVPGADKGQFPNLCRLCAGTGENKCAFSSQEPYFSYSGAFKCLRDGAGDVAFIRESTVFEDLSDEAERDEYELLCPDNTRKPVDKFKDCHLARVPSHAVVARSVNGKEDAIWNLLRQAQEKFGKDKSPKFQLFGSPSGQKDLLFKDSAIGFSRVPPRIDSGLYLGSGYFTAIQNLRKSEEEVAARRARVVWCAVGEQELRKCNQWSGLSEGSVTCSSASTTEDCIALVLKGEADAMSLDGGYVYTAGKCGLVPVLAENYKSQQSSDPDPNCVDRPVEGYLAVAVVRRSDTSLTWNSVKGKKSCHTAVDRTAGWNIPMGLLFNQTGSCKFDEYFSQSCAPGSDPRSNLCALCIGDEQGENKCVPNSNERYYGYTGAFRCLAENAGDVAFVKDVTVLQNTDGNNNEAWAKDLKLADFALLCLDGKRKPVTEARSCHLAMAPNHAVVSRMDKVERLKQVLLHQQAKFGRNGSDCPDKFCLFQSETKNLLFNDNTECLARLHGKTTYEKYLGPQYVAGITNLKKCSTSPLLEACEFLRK
UniProt P07339: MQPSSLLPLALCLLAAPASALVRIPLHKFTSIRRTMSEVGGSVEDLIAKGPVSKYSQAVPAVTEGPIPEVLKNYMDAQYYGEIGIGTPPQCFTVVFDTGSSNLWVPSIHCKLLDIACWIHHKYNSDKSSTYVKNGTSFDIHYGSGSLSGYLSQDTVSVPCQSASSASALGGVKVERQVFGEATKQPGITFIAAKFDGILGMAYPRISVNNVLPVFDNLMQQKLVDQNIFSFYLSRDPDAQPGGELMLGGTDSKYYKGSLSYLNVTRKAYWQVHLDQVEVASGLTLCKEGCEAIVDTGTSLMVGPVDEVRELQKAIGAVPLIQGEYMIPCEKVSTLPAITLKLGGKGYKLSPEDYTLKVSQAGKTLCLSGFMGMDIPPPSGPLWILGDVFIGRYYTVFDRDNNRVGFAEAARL
UniProt P08670: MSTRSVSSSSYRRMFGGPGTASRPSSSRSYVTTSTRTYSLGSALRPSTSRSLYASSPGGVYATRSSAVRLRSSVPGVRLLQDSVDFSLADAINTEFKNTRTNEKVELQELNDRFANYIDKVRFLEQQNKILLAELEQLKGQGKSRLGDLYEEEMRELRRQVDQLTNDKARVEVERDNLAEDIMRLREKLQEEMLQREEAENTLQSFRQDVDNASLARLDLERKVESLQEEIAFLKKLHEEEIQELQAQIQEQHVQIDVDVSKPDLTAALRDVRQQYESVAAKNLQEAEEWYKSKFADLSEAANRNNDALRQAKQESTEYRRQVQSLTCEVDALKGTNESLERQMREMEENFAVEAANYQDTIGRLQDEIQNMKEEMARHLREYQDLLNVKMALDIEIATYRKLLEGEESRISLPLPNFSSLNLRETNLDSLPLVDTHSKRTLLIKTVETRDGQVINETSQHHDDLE
UniProt P55036: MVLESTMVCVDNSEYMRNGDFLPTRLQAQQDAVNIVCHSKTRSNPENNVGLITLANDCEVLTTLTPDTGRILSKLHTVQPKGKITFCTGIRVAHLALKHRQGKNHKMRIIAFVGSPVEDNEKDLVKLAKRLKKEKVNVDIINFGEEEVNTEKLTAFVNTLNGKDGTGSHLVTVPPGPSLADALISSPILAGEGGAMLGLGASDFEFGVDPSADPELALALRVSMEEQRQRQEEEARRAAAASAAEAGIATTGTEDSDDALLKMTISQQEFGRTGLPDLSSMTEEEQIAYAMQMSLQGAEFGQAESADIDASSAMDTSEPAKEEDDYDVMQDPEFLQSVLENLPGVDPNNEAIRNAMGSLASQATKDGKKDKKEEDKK

T1: F-box and leucine-rich repeat protein 16 (Flag-FBXL16) (human) (UniProt Q8N461)
T1 sequence: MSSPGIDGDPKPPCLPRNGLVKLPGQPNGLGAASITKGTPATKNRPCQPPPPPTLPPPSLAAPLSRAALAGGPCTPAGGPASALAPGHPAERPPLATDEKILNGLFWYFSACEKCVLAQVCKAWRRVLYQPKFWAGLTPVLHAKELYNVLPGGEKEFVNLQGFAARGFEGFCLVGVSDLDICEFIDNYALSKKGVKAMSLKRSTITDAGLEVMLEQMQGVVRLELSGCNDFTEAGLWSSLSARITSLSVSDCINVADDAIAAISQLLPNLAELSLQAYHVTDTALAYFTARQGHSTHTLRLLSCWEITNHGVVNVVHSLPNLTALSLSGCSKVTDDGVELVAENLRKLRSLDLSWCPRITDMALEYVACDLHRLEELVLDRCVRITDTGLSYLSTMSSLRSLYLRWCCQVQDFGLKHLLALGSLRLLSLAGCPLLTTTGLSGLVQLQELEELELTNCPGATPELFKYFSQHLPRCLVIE


Each molecule was assayed against T1, F-box and leucine-rich repeat protein 16 (Flag-FBXL16) (human) (assay: affinity purification with mass spectrometry; 0 to 2 µg Flag-FBXL16 plasmid transfected into HEK293 cells; precipitated with Flag magnetic beads, eluted with glycine (0.1 M, pH 2.8), neutralised with 0.5 M Tris-HCl; trypsin digestion and mass spectrometry).

Row | Molecule | binding
1 | HSPA5 (from UniProt P11021 19-654) | binds
2 | LTF (from UniProt P02788 20-710) | binds
3 | USP17L19 (protein, UniProt D6RCP7 1-530) MEEDSLYLGGEWQFNHFSKLTSSRPDAAFAEIQRTSLPEKSPLSCETRVDLCDDLAPVARQLAPREKLPLSSRRPAAVGAGLQNMGNTCYVNASLQCLTYTPPLANYMLSREHSQTCHRHKGCMLCTMQAHITRALHNPGHVIQPSQALAAGFHRGKQEDAHEFLMFTVDAMKKACLPGHKQVDHHSKDTTLIHQIFGGYWRSQIKCLHCHGISDTFDPYLDIALDIQAAQSVQQALEQLVKPEELNGENAYHCGVCLQRAPASKTLTLHTSAKVLILVLKRFSDVTGNKIAKNVQYPECLDMQPYMSQTNTGPLVYVLYAVLVHAGWSCHNGHYFSYVKAQEGQWYKMDDAEVTASSITSVLSQQAYVLFYIQKSEWERHSESVSRGREPRALGAEDTDRRATQGELKRDHPCLQAPELDEHLVERATQESTLDHWKFLQEQNKTKPEFNVRKVEGTLPPDVLVIHQSKYKCGMKNHHPEQQSSLLKLSSTTPTHQESMNTGTLASLRGRARRSKGKNKHSKRALLVCQ | binds
4 | USP17L24 (protein, UniProt Q0WX57 1-530) MEDDSLYLRGEWQFNHFSKLTSSRPDAAFAEIQRTSLPEKSPLSCETRVDLCDDLAPVARQLAPREKLPLSSRRPAAVGAGLQNMGNTCYVNASLQCLTYTPPLANYMLSREHSQTCHRHKGCMLCTMQAHITRALHNPGHVIQPSQALAAGFHRGKQEDAHEFLMFTVDAMKKACLPGHKQVDHHSKDTTLIHQIFGGYWRSQIKCLHCHGISDTFDPYLDIALDIQAAQSVQQALEQLVKPEELNGENAYHCGVCLQRAPASKTLTLHTSAKVLILVLKRFSDVTGNKIAKNVQYPECLDMQPYMSQPNTGPLVYVLYAVLVHAGWSCHNGHYFSYVKAQEGQWYKMDDAEVTASSITSVLSQQAYVLFYIQKSEWERHSESVSRGREPRALGAEDTDRRATQGELKRDHPCLQAPELDEHLVERATQESTLDHWKFLQEQNKTKPEFNVRKVEGTLPPDVLVIHQSKYKCGMKNHHPEQQSSLLNLSSSTPTHQESMNTGTLASLRGRARRSKGKNKHSKRALLVCQ | binds
5 | USP17L3 (protein, UniProt A6NCW0 1-530) MGDDSLYLGGEWQFNHFSKLTSSRPDAAFAEIQRTSLPEKSPLSSETRVDLCDDLAPVARQLAPREKLPLSSRRPAAVGAGLQNMGNTCYENASLQCLTYTLPLANYMLSREHSQTCQRPKCCMLCTMQAHITWALHSPGHVIQPSQALASGFHRGKQEDVHEFLMFTVDAMKKACLPGHKQVDHHSKDTTLIHQIFGGCWRSQIKCLHCHGISDTFDPYLDIALDIQAAQSVKQALEQLVKPEELNGENAYHCGLCLQRAPASNTLTLHTSAKVLILVLKRFSDVAGNKLAKNVQYPECLDMQPYMSQQNTGPLVYVLYAVLVHAGWSCHDGHYFSYVKAQEGQWYKMDDAEVTVCSITSVLSQQAYVLFYIQKSEWERHSESVSRGREPRALGAEDTDRRAKQGELKRDHPCLQAPELDEHLVERATQESTLDHWKFLQEQNKTKPEFNVGKVEGTLPPNALVIHQSKYKCGMKNHHPEQQSSLLNLSSTTRTDQESMNTGTLASLQGRTRRAKGKNKHSKRALLVCQ | binds
6 | USP17L2 (protein, UniProt Q6R6M4 1-530) MEDDSLYLGGEWQFNHFSKLTSSRPDAAFAEIQRTSLPEKSPLSSEARVDLCDDLAPVARQLAPRKKLPLSSRRPAAVGAGLQNMGNTCYENASLQCLTYTPPLANYMLSREHSQTCQRPKCCMLCTMQAHITWALHSPGHVIQPSQALAAGFHRGKQEDAHEFLMFTVDAMKKACLPGHKQVDHHSKDTTLIHQIFGGCWRSQIKCLHCHGISDTFDPYLDIALDIQAAQSVKQALEQLVKPEELNGENAYHCGLCLQRAPASKTLTLHTSAKVLILVLKRFSDVTGNKLAKNVQYPECLDMQPYMSQQNTGPLVYVLYAVLVHAGWSCHDGHYFSYVKAQEGQWYKMDDAKVTACSITSVLSQQAYVLFYIQKSEWERHSESVSRGREPRALGAEDTDRRATQGELKRDHPCLQAPELDERLVERATQESTLDHWKFPQEQNKTKPEFNVRKVEGTLPPNVLVIHQSKYKCGMKNHHPEQQSSLLNLSSTTRTDQESVNTGTLASLQGRTRRSKGKNKHSKRALLVCQ | binds

Further lines, results first:

Row | binding | Molecule
7 | binds | CTSD (from UniProt P07339)
8 | binds | VIM (from UniProt P08670 1-466)
9 | binds | PSMD4 (from UniProt P55036 1-377)
10 | binds | USP17L18 (protein, UniProt D6R9N7 1-530) MEDDSLYLGGEWQFNHFSKLTSSRPDAAFAEIQRTSLPEKSPLSCETRVDLCDDLAPVARQLAPREKLPLSSRRPAAVGAGLQNMGNTCYVNASLQCLTYTPPLANYMLSREHSQTCHRHKGCMLCTMQAHITRALHNPGHVIQPSQALAAGFHRGKQEDAHEFLMFTVDAMKKACLPGHKQVDHHSKDTTLIHQIFGGYWRSQIKCLHCHGISDTFDPYLDIALDIQAAQSVQQALEQLVKPEELNGENAYHCGVCLQRAPASKTLTLHTSAKVLILVLKRFSDVTGNKIAKNVQYPECLDMQPYMSQTNTGPLVYVLYAVLVHAGWSCHNGHYFSYVKAQEGQWYKMDDAEVTASSITSVLSQQAYVLFYIQKSEWERHSESVSRGREPRALGAEDTDRRAKQGELKRDHPCLQAPELDEHLVERATQESTLDHWKFLQEQNKTKPEFNVRKVEGTLPPDVLVIHQSKYKCGMKNHHPEQQSSLLNLSSTTPTHQESMNTGTLASLRGRARRSKGKNKHSKRALLVCQ
11 | binds | USP17L20 (protein, UniProt D6RJB6 1-530) MEDDSLYLGGEWQFNHFSKLTSSRPDAAFAEIQRTSLPEKSPLSCETRVDLCDDLAPVARQLAPREKLPLSSRRPAAVGAGLQNMGNTCYVNASLQCLTYTPPLANYMLSREHSQTCHRHKGCMLCTMQAHITRALHNPGHVIQPSQALAAGFHRGKQEDAHEFLMFTVDAMKKACLPGHKQVDHHSKDTTLIHQIFGGYWRSQIKCLHCHGISDTFDPYLDIALDIQAAQSVQQALEQLVKPEELNGENAYHCGVCLQRAPASKTLTLHTSAKVLILVLKRFSDVTGNKIAKNVQYPECLDMQPYMSQPNTGPLVYVLYAVLVHAGWSCHNGHYFSYVKAQEGQWYKMDDAEVTASSITSVLSQQAYVLFYIQKSEWERHSESVSRGREPRALGAEDTDRRATQGELKRDHPCLQAPELDEHLVERATQESTLDHWKFLQEQNKTKPEFNVRKVEGTLPPDVLVIHQSKYKCGMKNHHPEQQSSLLNLSSTTPTHQESMNTGTLASLRGRARRSKGKNKHSKRALLVCQ
12 | binds | USP17L5 (protein, UniProt A8MUK1 1-530) MEDDSLYLRGEWQFNHFSKLTSSRPDAAFAEIQRTSLPEKSPLSCETRVDLCDDLAPVARQLAPREKLPLSSRRPAAVGAGLQNMGNTCYVNASLQCLTYTPPLANYMLSREHSQTCHRHKGCMLCTMQAHITRALHNPGHVIQPSQALAAGFHRGKQEDAHEFLMFTVDAMKKACLPGHKQVDHHSKDTTLIHQIFGGYWRSQIKCLHCHGISDTFDPYLDIALDIQAAQSVQQALEQLAKPEELNGENAYHCGVCLQRAPASKTLTLHTSAKVLILVLKRFSDVTGNKIAKNVQYPECLDMQPYMSQPNTGPLVYVLYAVLVHAGWSCHNGHYFSYVKAQEGQWYKMDDAEVTASSITSVLSQQAYVLFYIQKSEWERHSESVSRGREPRALGAEDTDRRATQGELKRDHPCLQAPELDEHLVERATQESTLDHWKFLQEQNKTKPEFNVRKVEGTLPPDVLVIHQSKYKCGMKNHHPEQQSSLLNLSSSTPTHQESMNTGTLASLRGRARRSKGKNKHSKRALLVCQ
13 | binds | USP17L15 (protein, UniProt C9J2P7 1-553) MEDDSLYLGGEWQFNHFSKLTSSRPDAAFAEIQRTSLPEKSPLSCETRVDLCDDLAPVARQLAPREKLPLSSRRPAAVGAGLQNMGNTCYVNASLQCLTYTPPLANYMLSREHSQTCHRHKGCMLCTMQAHITRALHNPGHVIQPSQALAAGFHRGKQEDAHEFLMFTVDAMKKACLPGHKQVDHHSKDTTLIHQIFGGYWRSQIKCLHCHGISDTFDPYLDIALDIQAAQSVQQALEQLVKPEELNGENAYHCGVCLQRAPASKTLTLHTSAKVLILVLKRFSDVTGNKIDKNVQYPECLDMKLYMSQTNSGPLVYVLYAVLVHAGWSCHNGHYFSYVKAQEGQWYKMDDAEVTASSITSVLSQQAYVLFYIQKSEWERHSESVSRGREPRALGAEDTDRRATQGELKRDHPCLQAPELDEHLVERATQESTLDHWKFLQEQNKTKPEFNVRKVEGTLPPDVLVIHQSKYKCGMKNHHPEQQSSLLNLSSTTPTHQESMNTGTLASLRGRARRSKGKNKHSKRALLVCQWSQWKYRPTRRGAHTHAHTQTHT
14 | binds | USP17L1 (protein, UniProt Q7RTZ2 1-530) MGDDSLYLGGEWQFNHFSKLTSSRPDAAFAEIQRTSLPEKSPLSSETRVDLCDDLAPVARQLAPREKLPLSSRRPAAVGAGLQNMGNTCYENASLQCLTYTLPLANYMLSREHSQTCQRPKCCMLCTMQAHITWALHSPGHVIQPSQALAAGFHRGKQEDVHEFLMFTVDAMKKACLPGHKQVDHHCKDTTLIHQIFGGCWRSQIKCLHCHGISDTFDPYLDIALDIQAAQSVKQALEQLVKPEELNGENAYHCGLCLQRAPASNTLTLHTSAKVLILVLKRFSDVAGNKLAKNVQYPECLDMQPYMSQQNTGPLVYVLYAVLVHAGWSCHDGHYFSYVKAQEVQWYKMDDAEVTVCSIISVLSQQAYVLFYIQKSEWERHSESVSRGREPRALGAEDTDRRAKQGELKRDHPCLQAPELDEHLVERATQESTLDHWKFLQEQNKTKPEFNVGKVEGTLPPNALVIHQSKYKCGMKNHHPEQQSSLLNLSSTTRTDQESMNTGTLASLQGRTRRAKGKNKHSKRALLVCQ
15 | binds | PRDX2 (protein, UniProt P32119 1-198) MASGNARIGKPAPDFKATAVVDGAFKEVKLSDYKGKYVVLFFYPLDFTFVCPTEIIAFSNRAEDFRKLGCEVLGVSVDSQFTHLAWINTPRKEGGLGPLNIPLLADVTRRLSEDYGVLKTDEGIAYRGLFIIDGKGVLRQITVNDLPVGRSVDEALRLVQAFQYTDEHGEVCPAGWKPGSDTIKPNVDDSKEYFSKHN
